Results are given in words; binding and its absence hold for the method and conditions named. In cells and extracts the contact can be indirect. Some results given as binding are weak or reduced against the parent protein; the word gives no strength. Tags and fused reporters may be left off the sequences shown. Values belong to the molecule of their own block, whether it stands above or below them.
How the values were obtained:
myc-tagged TCF21 (human) = target: T1, myc-tagged TCF21 (human) (UniProt O43680); assay: co-IP; HEK293 cells transfected with myc-tagged TCF21 and non-tagged JUN plasmids; Nuclear complex Co-IP kit (Active Motif); IP with myc-tag or JUN antibody, western blot for the other protein
T1 sequence: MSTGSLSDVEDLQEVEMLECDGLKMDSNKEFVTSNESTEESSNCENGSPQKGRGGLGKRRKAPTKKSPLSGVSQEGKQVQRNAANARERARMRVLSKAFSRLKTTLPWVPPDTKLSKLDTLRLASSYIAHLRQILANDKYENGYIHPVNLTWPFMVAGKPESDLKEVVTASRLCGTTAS

Amino acid sequences for entries named in this document (tags omitted).
UniProt P05412: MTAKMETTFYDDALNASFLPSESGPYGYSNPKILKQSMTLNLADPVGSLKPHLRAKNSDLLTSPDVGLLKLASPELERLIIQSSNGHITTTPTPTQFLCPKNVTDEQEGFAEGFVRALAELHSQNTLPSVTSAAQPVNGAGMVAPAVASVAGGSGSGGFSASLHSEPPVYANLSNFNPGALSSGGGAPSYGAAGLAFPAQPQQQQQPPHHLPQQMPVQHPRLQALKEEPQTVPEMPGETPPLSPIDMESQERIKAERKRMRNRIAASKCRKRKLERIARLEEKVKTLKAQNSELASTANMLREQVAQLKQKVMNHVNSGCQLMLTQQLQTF

JUN (non-tagged) (human) = JUN (non-tagged) (human) (UniProt P05412); assay: as above

binding (myc-tagged TCF21 (human)): binds
Molecule: JUN (non-tagged) (from UniProt P05412 1-331)

binding (JUN (non-tagged) (human)): binds
B1: myc-tagged TCF21 (protein, UniProt O43680 1-179)
chain: T1 sequence
